From patent US10369124B2, “Dendrimer compositions and their use in treatment of diseases of the eye” (The Johns Hopkins University, priority 2014, dated 2019)
Some of these results come from one statement about several compounds together. At least one compound was matched to its structure with a doubt left.

Assay: Quantitative biodistribution of D-Cy5 in vital organs by fluorescence spectroscopy (FLS)
Format: in vivo, BALB/c mice
Conditions: IV
Procedure: Biodistribution analysis of D-Cy5 in vital organs. Twelve BALB-C mice weighing ˜25 gr BW were used for this study. Four animals were sacrificed at each time point: 24 hours, 72 hours and 21 days. Each mouse was injected via femoral vein with 600 μg of D-Cy5 in 100 μL of sterile PBS. At respective time point, the animals were euthanized and vital organs (heart, lungs, spleen, kidney, liver and eyes) were harvested immediately and organ wet weights were noted. Organs were snap frozen on dry ice, and stored at −80° C. until analysis. Upon analysis, the tissues were thawed and approximately 100-150 mg of tissue were measured and homogenized with 1 ml of MeOH in low DNA binding tubes (Eppendorf AG, Hamburg, Germany) using stainless steel bead and tissue homogenizer (Tissuelyzer LT, QIAGEN, Hilden, Germany) resulting in a pulpy tissue suspension. The suspension was sonicated for 30 minutes and appropriate volumes containing 100 mg of tissue were placed in different low DNA binding vials and diluted with methanol to 1 ml so that the same amount of tissue and same volume was analyzed for each sample. The samples were centrifuged at 10,000 rpm for 10 minutes at 4° C. resulting in supernatants, which were subjected to fluorescence spectroscopy (FLS).
Quantitative biodistribution of D-Cy5 in vital organs. […]

CCN1/C(=C/C=C/C=C/C2=[N+](CCCCCC(=O)O)c3ccc(S(=O)(=O)O)cc3C2(C)C)C(C)(C)c2cc(S(=O)(=O)[O-])ccc21 [free Cy5]
time to deep blue urine after injection: 5 to 7 min
